Results deposited as PubChem BioAssay AID1259308 (NCATS, 2017).
Shown is one part, drawn at random, of about 59,000 deposited reagents. Of all reagents, about 1,510 (2.6%) were called active. 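Calls use total luciferase alone and ignore viability, so some active siRNAs may act by altering cell number.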

- Aim: 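Candidate targets for better recombinant protein yield in mammalian cells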 (primary screen)
- Cells: human HEK293 embryonic kidney cells stably expressing firefly luciferase (HEK-CMV-Luc2-Hygro)
- Reagents: single siRNA against human genes, 0.8 pmol siRNA per well
- Timing: 72 h
- Measured: 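Luciferase light (ONE-Glo) measured on one replicate plate set and viability (CellTiter-Glo) on the other, scaled to a negative control siRNA, with robust z-scores and luciferase per cell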
- Scale: total luciferase, z-score and total luciferase, % of control: higher = more reporter protein produced; luciferase per cell, z-score: higher = more reporter output per viable cell; viable cells, % of control: higher = more viable cells
- Rule for the call: 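An siRNA counts as active if its total luciferase robust z-score exceeds 3; genes with two or more such siRNAs out of three were retested with fresh siRNAs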
- Meaning of the calls: active = raised luciferase; inactive = no rise

gene symbol	PubChem SID	total luciferase, z-score	total luciferase, % of control	luciferase per cell, z-score	viable cells, % of control	call
IL3 (interleukin 3)	SID160775700	-0.58	70.4	-0.624	92.7	inactive
IL3 (interleukin 3)	SID160775701	0.29	87.7	0.00922	97.7	inactive
IL3 (interleukin 3)	SID160775702	0.278	87.4	-0.205	103	inactive
PGM2L1 (phosphoglucomutase 2 like 1)	SID160762809	-0.41	73.7	-0.722	99.6	inactive
PGM2L1 (phosphoglucomutase 2 like 1)	SID160762811	0.247	86.8	0.842	77.7	inactive
PGM2L1 (phosphoglucomutase 2 like 1)	SID160762812	1.07	103	0.208	109	inactive
SP6 (Sp6 transcription factor)	SID160750379	-0.149	78.9	0.00868	88	inactive
SP6 (Sp6 transcription factor)	SID160750380	-2.35	35.2	-1.97	66	inactive
SP6 (Sp6 transcription factor)	SID160750381	1	102	1.38	79	inactive
SBSN (suprabasin)	SID160733157	0.113	84.1	0.133	90.8	inactive
SBSN (suprabasin)	SID160733158	0.69	95.6	0.1	104	inactive
SBSN (suprabasin)	SID160765335	0.745	96.7	0.994	83.2	inactive
FLRT2 (fibronectin leucine rich transmembrane protein 2)	SID160736862	0.891	99.6	0.977	86.1	inactive
FLRT2 (fibronectin leucine rich transmembrane protein 2)	SID160736864	0.544	92.7	0.48	91.3	inactive
FLRT2 (fibronectin leucine rich transmembrane protein 2)	SID160736865	-0.434	73.3	-0.758	99.9	inactive
C6orf89 (chromosome 6 open reading frame 89)	SID160761708	-1.2	58.1	-1.21	89.2	inactive
C6orf89 (chromosome 6 open reading frame 89)	SID160761709	-1.31	55.8	1.31	44.1	inactive
C6orf89 (chromosome 6 open reading frame 89)	SID160761710	1.48	111	1.26	89.3	inactive
KIF26B (kinesin family member 26B)	SID160742898	0.129	84.4	0.0492	93.2	inactive
KIF26B (kinesin family member 26B)	SID160742899	0.0694	83.3	-0.0508	94.3	inactive
KIF26B (kinesin family member 26B)	SID160742900	-0.262	76.7	-0.397	95.1	inactive
RPLP2P1 (ribosomal protein lateral stalk subunit P2 pseudogene 1)	SID160725463	0.385	89.5	0.256	93.5	inactive
RPLP2P1 (ribosomal protein lateral stalk subunit P2 pseudogene 1)	SID160725464	0.487	91.6	0.401	92.1	inactive
RPLP2P1 (ribosomal protein lateral stalk subunit P2 pseudogene 1)	SID160733440	4.58	173	2.19	109	active
ACVRL1 (activin A receptor like type 1)	SID160778390	-1.41	53.9	-0.761	73.5	inactive
ACVRL1 (activin A receptor like type 1)	SID160778401	-0.776	66.5	-1.57	112	inactive
ACVRL1 (activin A receptor like type 1)	SID160778412	0.021	82.3	-0.164	96	inactive
NAF1 (nuclear assembly factor 1 ribonucleoprotein)	SID160754268	-0.846	65.1	-0.229	77.2	inactive
NAF1 (nuclear assembly factor 1 ribonucleoprotein)	SID160754269	-0.471	72.5	-0.283	87.3	inactive
NAF1 (nuclear assembly factor 1 ribonucleoprotein)	SID160754270	-0.755	66.9	-0.645	88.6	inactive
NKTR (natural killer cell triggering receptor)	SID160778083	-0.255	76.8	-0.439	96.4	inactive
NKTR (natural killer cell triggering receptor)	SID160778084	0.223	86.3	0.94	75.3	inactive
NKTR (natural killer cell triggering receptor)	SID160778085	-0.878	64.4	-0.0503	72.9	inactive
PIEZO1-AS1 (PIEZO1 antisense RNA 1)	SID160725076	-0.612	69.7	-0.625	91.9	inactive
PIEZO1-AS1 (PIEZO1 antisense RNA 1)	SID160764144	1.42	110	2.04	72	inactive
PIEZO1-AS1 (PIEZO1 antisense RNA 1)	SID160764145	-1.16	58.7	-0.291	70.9	inactive
INSL6 (insulin like 6)	SID160730114	-0.0352	81.2	-0.0913	92.9	inactive
INSL6 (insulin like 6)	SID160730115	0.307	88	0.174	93.9	inactive
INSL6 (insulin like 6)	SID160730116	-0.48	72.3	-0.857	101	inactive
